Measurements published in the supplement of paper PMC8728848.
The other results are listed elsewhere or left out.

Assays:
Experiment in all cases: glycan array binding signal (z-score within array); higher = stronger binding
Details in all cases: glycan notation: IUPAC condensed, linker removed
[1] = molecular target: GlcNAc(b1-2)Gal(b1-3)GalNAc
Outline: (§1)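 Negative Z-scores can be read as non-binding. The Z-score is calculated within each array and then averaged across arrays of one protein sequence at different concentrations or buffers and across linkers. Arrays, 3228 in all, were curated from the Consortium for Functional Glycomics database and kept only where the protein sequence was available.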

[2] = molecular target: GlcNAc(b1-2)Man(a1-3)[GlcNAc(b1-2)Man(a1-6)]Man(b1-4)GlcNAc(b1-4)GlcNAc
Outline: as §1

[3] = molecular target: GlcNAc(b1-2)Man(a1-3)[GlcNAc(b1-2)Man(a1-6)]Man(b1-4)GlcNAc(b1-4)[Fuc(a1-6)]GlcNAc
Outline: as §1

[4] = molecular target: GlcNAc(b1-2)Man(a1-3)[GlcNAc(b1-4)][GlcNAc(b1-2)Man(a1-6)]Man(b1-4)GlcNAc(b1-4)GlcNAc
Outline: as §1

[5] = molecular target: GlcNAc(b1-2)Man(a1-3)[GlcNAc(b1-4)][GlcNAc(b1-2)Man(a1-6)]Man(b1-4)GlcNAc(b1-4)[Fuc(a1-6)]GlcNAc
Outline: as §1

[6] = molecular target: GlcNAc(b1-2)[GlcNAc(b1-4)]Man(a1-3)[GlcNAc(b1-2)Man(a1-6)]Man(b1-4)GlcNAc(b1-4)GlcNAc
Outline: as §1

[7] = molecular target: GlcNAc(b1-2)[GlcNAc(b1-4)]Man(a1-3)[GlcNAc(b1-4)][GlcNAc(b1-2)Man(a1-6)]Man(b1-4)GlcNAc(b1-4)GlcNAc
Outline: as §1

[8] = molecular target: GlcNAc(b1-2)[GlcNAc(b1-4)]Man(a1-3)[GlcNAc(b1-4)][GlcNAc(b1-2)[GlcNAc(b1-6)]Man(a1-6)]Man(b1-4)GlcNAc(b1-4)GlcNAc
Outline: as §1

[9] = molecular target: GlcNAc(b1-2)[GlcNAc(b1-4)]Man(a1-3)[GlcNAc(b1-4)][GlcNAc(b1-2)[GlcNAc(b1-6)]Man(a1-6)]Man(b1-4)GlcNAc(b1-4)[Fuc(a1-6)]GlcNAc
Outline: as §1

[10] = molecular target: GlcNAc(b1-2)[GlcNAc(b1-6)]Man(a1-6)[GlcNAc(b1-2)Man(a1-3)]Man(b1-4)GlcNAc(b1-4)GlcNAc
Outline: as §1

[11] = molecular target: GlcNAc(b1-2)[GlcNAc(b1-6)]Man(a1-6)[GlcNAc(b1-2)Man(a1-3)]Man(b1-4)GlcNAc(b1-4)[Fuc(a1-6)]GlcNAc
Outline: as §1

[12] = molecular target: GlcNAc(b1-2)[GlcNAc(b1-6)]Man(a1-6)[GlcNAc(b1-4)][GlcNAc(b1-2)Man(a1-3)]Man(b1-4)GlcNAc(b1-4)GlcNAc
Outline: as §1

[13] = molecular target: GlcNAc(b1-3)Fuc
Outline: as §1

[14] = molecular target: GlcNAc(b1-3)Gal
Outline: as §1

[15] = molecular target: GlcNAc(b1-3)Gal(b1-3)GalNAc
Outline: as §1

[16] = molecular target: GlcNAc(b1-3)Gal(b1-4)Glc
Outline: as §1

[17] = molecular target: GlcNAc(b1-3)Gal(b1-4)GlcNAc
Outline: as §1

[18] = molecular target: GlcNAc(b1-3)Gal(b1-4)GlcNAc(b1-2)Man(a1-3)[GlcNAc(b1-3)Gal(b1-4)GlcNAc(b1-2)Man(a1-6)]Man(b1-4)GlcNAc(b1-4)GlcNAc
Outline: as §1

[19] = molecular target: GlcNAc(b1-3)Gal(b1-4)GlcNAc(b1-2)Man(a1-3)[GlcNAc(b1-3)Gal(b1-4)GlcNAc(b1-2)Man(a1-6)]Man(b1-4)GlcNAc(b1-4)[Fuc(a1-6)]GlcNAc
Outline: as §1

[20] = molecular target: GlcNAc(b1-3)Gal(b1-4)GlcNAc(b1-2)[GlcNAc(b1-3)Gal(b1-4)GlcNAc(b1-6)]Man(a1-6)[GlcNAc(b1-3)Gal(b1-4)GlcNAc(b1-2)Man(a1-3)]Man(b1-4)GlcNAc(b1-4)GlcNAc
Outline: as §1

[21] = molecular target: GlcNAc(b1-3)Gal(b1-4)GlcNAc(b1-3)Gal(b1-4)GlcNAc
Outline: as §1

[22] = molecular target: GlcNAc(b1-3)Gal(b1-4)GlcNAc(b1-3)Gal(b1-4)GlcNAc(b1-2)Man(a1-3)[GlcNAc(b1-3)Gal(b1-4)GlcNAc(b1-3)Gal(b1-4)GlcNAc(b1-2)Man(a1-6)]Man(b1-4)GlcNAc(b1-4)GlcNAc
Outline: as §1

[23] = molecular target: GlcNAc(b1-3)Gal(b1-4)GlcNAc(b1-3)Gal(b1-4)GlcNAc(b1-2)Man(a1-3)[GlcNAc(b1-3)Gal(b1-4)GlcNAc(b1-3)Gal(b1-4)GlcNAc(b1-2)Man(a1-6)]Man(b1-4)GlcNAc(b1-4)[Fuc(a1-6)]GlcNAc
Outline: as §1

[24] = molecular target: GlcNAc(b1-3)Gal(b1-4)GlcNAc(b1-3)Gal(b1-4)GlcNAc(b1-2)[GlcNAc(b1-3)Gal(b1-4)GlcNAc(b1-3)Gal(b1-4)GlcNAc(b1-6)]Man(a1-6)[GlcNAc(b1-3)Gal(b1-4)GlcNAc(b1-3)Gal(b1-4)GlcNAc(b1-2)Man(a1-3)]Man(b1-4)GlcNAc(b1-4)[Fuc(a1-6)]GlcNAc
Outline: as §1

[25] = molecular target: GlcNAc(b1-3)Gal(b1-4)GlcNAc(b1-3)Gal(b1-4)GlcNAc(b1-3)Gal(b1-4)GlcNAc(b1-2)Man(a1-3)[GlcNAc(b1-3)Gal(b1-4)GlcNAc(b1-3)Gal(b1-4)GlcNAc(b1-3)Gal(b1-4)GlcNAc(b1-2)Man(a1-6)]Man(b1-4)GlcNAc(b1-4)GlcNAc
Outline: as §1

[26] = molecular target: GlcNAc(b1-3)Gal(b1-4)GlcNAc(b1-3)Gal(b1-4)GlcNAc(b1-3)Gal(b1-4)GlcNAc(b1-2)Man(a1-3)[GlcNAc(b1-3)Gal(b1-4)GlcNAc(b1-3)Gal(b1-4)GlcNAc(b1-3)Gal(b1-4)GlcNAc(b1-2)Man(a1-6)]Man(b1-4)GlcNAc(b1-4)[Fuc(a1-6)]GlcNAc
Outline: as §1

[27] = molecular target: GlcNAc(b1-3)Gal(b1-4)GlcNAc(b1-3)Gal(b1-4)GlcNAc(b1-3)Gal(b1-4)GlcNAc(b1-2)[GlcNAc(b1-3)Gal(b1-4)GlcNAc(b1-3)Gal(b1-4)GlcNAc(b1-3)Gal(b1-4)GlcNAc(b1-6)]Man(a1-6)[GlcNAc(b1-3)Gal(b1-4)GlcNAc(b1-3)Gal(b1-4)GlcNAc(b1-3)Gal(b1-4)GlcNAc(b1-2)Man(a1-3)]Man(b1-4)GlcNAc(b1-4)[Fuc(a1-6)]GlcNAc
Outline: as §1

[28] = molecular target: GlcNAc(b1-3)Gal(b1-4)GlcNAc(b1-3)Gal(b1-4)GlcNAc(b1-3)Gal(b1-4)GlcNAc(b1-3)Gal(b1-4)GlcNAc(b1-2)Man(a1-3)[GlcNAc(b1-3)Gal(b1-4)GlcNAc(b1-3)Gal(b1-4)GlcNAc(b1-3)Gal(b1-4)GlcNAc(b1-3)Gal(b1-4)GlcNAc(b1-2)Man(a1-6)]Man(b1-4)GlcNAc(b1-4)GlcNAc
Outline: as §1

[29] = molecular target: GlcNAc(b1-3)Gal(b1-4)GlcNAc(b1-3)Gal(b1-4)GlcNAc(b1-3)Gal(b1-4)GlcNAc(b1-3)Gal(b1-4)GlcNAc(b1-2)Man(a1-3)[GlcNAc(b1-3)Gal(b1-4)GlcNAc(b1-3)Gal(b1-4)GlcNAc(b1-3)Gal(b1-4)GlcNAc(b1-3)Gal(b1-4)GlcNAc(b1-2)Man(a1-6)]Man(b1-4)GlcNAc(b1-4)[Fuc(a1-6)]GlcNAc
Outline: as §1

[30] = molecular target: GlcNAc(b1-3)Gal(b1-4)GlcNAc(b1-3)Gal(b1-4)GlcNAc(b1-3)Gal(b1-4)GlcNAc(b1-3)Gal(b1-4)GlcNAc(b1-2)[GlcNAc(b1-3)Gal(b1-4)GlcNAc(b1-3)Gal(b1-4)GlcNAc(b1-3)Gal(b1-4)GlcNAc(b1-3)Gal(b1-4)GlcNAc(b1-6)]Man(a1-6)[GlcNAc(b1-3)Gal(b1-4)GlcNAc(b1-3)Gal(b1-4)GlcNAc(b1-3)Gal(b1-4)GlcNAc(b1-3)Gal(b1-4)GlcNAc(b1-2)Man(a1-3)]Man(b1-4)GlcNAc(b1-4)[Fuc(a1-6)]GlcNAc
Outline: as §1

[31] = molecular target: GlcNAc(b1-3)Gal(b1-4)GlcNAc(b1-3)Gal(b1-4)GlcNAc(b1-3)GalNAc
Outline: as §1

[32] = molecular target: GlcNAc(b1-3)Gal(b1-4)GlcNAc(b1-3)GalNAc
Outline: as §1

[33] = molecular target: GlcNAc(b1-3)Gal(b1-4)GlcNAc(b1-3)[GlcNAc(b1-3)Gal(b1-4)GlcNAc(b1-3)]GalNAc
Outline: as §1

[34] = molecular target: GlcNAc(b1-3)Gal(b1-4)GlcNAc(b1-6)[Gal(b1-3)]GalNAc
Outline: as §1

[35] = molecular target: GlcNAc(b1-3)Gal(b1-4)GlcNAc(b1-6)[GlcNAc(b1-3)Gal(b1-3)]GalNAc
Outline: as §1

[36] = molecular target: GlcNAc(b1-3)Gal(b1-4)GlcNAc(b1-6)[GlcNAc(b1-3)]Gal(b1-4)GlcNAc
Outline: as §1

[37] = molecular target: GlcNAc(b1-3)GalNAc
Outline: as §1

[38] = molecular target: GlcNAc(b1-3)Man
Outline: as §1

[39] = molecular target: GlcNAc(b1-3)[GlcNAc(b1-4)][GlcNAc(b1-6)]GlcNAc
Outline: as §1

[40] = molecular target: GlcNAc(b1-3)[GlcNAc(b1-6)]Gal(b1-4)GlcNAc
Outline: as §1

[41] = molecular target: GlcNAc(b1-3)[GlcNAc(b1-6)]GalNAc
Outline: as §1

[42] = molecular target: GlcNAc(b1-4)Gal(b1-4)GlcNAc
Outline: as §1

[43] = molecular target: GlcNAc(b1-4)GlcNAc
Outline: as §1

[44] = molecular target: GlcNAc(b1-4)GlcNAc(b1-4)GlcNAc
Outline: as §1

[45] = molecular target: GlcNAc(b1-4)GlcNAc(b1-4)GlcNAc(b1-4)GlcNAc(b1-4)GlcNAc
Outline: as §1

B1: Pwp1 (Candida glabrata) (protein)
chain: MGSSHHHHHHSSGLVPRGSHMASANPISITNVCQFPDNWARTAGFQATTVRLGLTIASNTYKELLNYPGLFNFATQKATVTQPNFSISGFPFFTGLYGLTVWPINLLVELQGYFVPPESGNYTFTLQGSDDAAILFFANPSTFACGSQNDWPQPREADITVTDTLVPSRTLYLVKGVAYPIRIAYYNGSGDGKLNVSFKDPSGTTHTDWKGYVWQYSNTCSTCTYT
glycan array binding signal (z-score) [1]: 0.745
glycan array binding signal (z-score) [2]: 0.258
glycan array binding signal (z-score) [3]: 0.012
glycan array binding signal (z-score) [4]: 0.347
glycan array binding signal (z-score) [5]: 0.685
glycan array binding signal (z-score) [6]: 0.374
glycan array binding signal (z-score) [7]: 1.03
glycan array binding signal (z-score) [8]: 0.773
glycan array binding signal (z-score) [9]: 1.22
glycan array binding signal (z-score) [10]: 0.946
glycan array binding signal (z-score) [11]: 0.879
glycan array binding signal (z-score) [12]: 1.05
glycan array binding signal (z-score) [13]: -0.288
glycan array binding signal (z-score) [14]: 0.927
glycan array binding signal (z-score) [15]: -0.576
glycan array binding signal (z-score) [16]: 0.837
glycan array binding signal (z-score) [17]: 0.929
glycan array binding signal (z-score) [18]: -0.003
glycan array binding signal (z-score) [19]: -2.61
glycan array binding signal (z-score) [20]: 0.839
glycan array binding signal (z-score) [21]: 0.561
glycan array binding signal (z-score) [22]: -0.374
glycan array binding signal (z-score) [23]: -1.99
glycan array binding signal (z-score) [24]: -0.975
glycan array binding signal (z-score) [25]: -2.3
glycan array binding signal (z-score) [26]: 0.437
glycan array binding signal (z-score) [27]: -0.321
glycan array binding signal (z-score) [28]: -2.17
glycan array binding signal (z-score) [29]: -2.16
glycan array binding signal (z-score) [30]: -0.567
glycan array binding signal (z-score) [31]: -1.29
glycan array binding signal (z-score) [32]: 1.13
glycan array binding signal (z-score) [33]: -0.127
glycan array binding signal (z-score) [34]: -0.991
glycan array binding signal (z-score) [35]: -0.722
glycan array binding signal (z-score) [36]: 0.31
glycan array binding signal (z-score) [37]: -0.477
glycan array binding signal (z-score) [38]: -0.016
glycan array binding signal (z-score) [39]: 1.27
glycan array binding signal (z-score) [40]: -0.622
glycan array binding signal (z-score) [41]: 0.051
glycan array binding signal (z-score) [42]: -2.23
glycan array binding signal (z-score) [43]: 0.559
glycan array binding signal (z-score) [44]: 0.075
glycan array binding signal (z-score) [45]: -1.03
